Experimental data taken from PubChem BioAssay AID2685 (National Center for Advancing Translational Sciences (NCATS), 2010).
The list shows a part of the results. These are further read-outs of the screen, such as a control signal, another cell line or another target. No call is given for them. Compounds called inactive in the main read-out are mostly missing here. Potencies come from curve fits of mixed quality, noted in brackets.

Assay: qHTS Assay for Lipid Storage Modulators in Drosophila S3 Cells;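 on cell number change: cells counted by Cell Tracker Red CMTPX staining in the red channel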
Details: BODIPY lipid droplet fluorescence, 18-24 h; for cell number change: measured here: cell count max response, cells fed with added oleic acid
Summary of the method: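 Laser-scanning cytometry quantifies lipid droplet accumulation (500–530 nm total intensity; droplet/cell object ratio) in oleic acid-fed (400 uM added) Drosophila S3 cells treated with a concentration series. 20 uM Triacsin C defined 100% inhibition.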

[1] = measured here: cell number channel AC50, cells fed with added oleic acid
[2] = measured here: lipid fluorescence (Fed channel) AC50, cells fed with added oleic acid

Row | SMILES | cell number change | AC50 [1] | AC50 [2]
1 | CC(C)(C)NC(=O)NC(=O)COC(=O)CNC(=O)c1cc(Cl)cc([N+](=O)[O-])c1 | -38% | 5.17 µM [falling, full curve] | 
2 | O=C(NNC(=O)C1CCCCC1)c1ccncc1 | -5.71% |  | 
3 | COc1cccc2[nH]c3c(N4CCCCC4)ncnc3c12 | -30.2% | 0.366 µM [falling, full curve, poor fit] | 0.731 µM [falling, full curve, poor fit]
4 | NS(=O)(=O)c1ccc(NC(=S)N2CCN(C(=O)C3CCCO3)CC2)cc1 (configuration not stated) | -11.9% |  | 9.2 µM [falling, partial curve]
5 | O=C(Nc1ccccc1Cl)OC1CCCCC1 | 13.3% |  | 
6 | Cc1ccc(S(=O)(=O)N/N=C(\c2ccccc2)C2CC2)cc1 | 13.4% |  | 0.0731 µM [rising, full curve, poor fit]
7 | O=C1COc2ccc(S(=O)(=O)Nc3cccc(Cl)c3)cc2N1 | -12.7% |  | 6.51 µM [rising, single point]
8 | Cc1cc([N+](=O)[O-])nn1CC(=O)Nc1cc(F)ccc1F | 2.64% | 6.51 µM [falling, single point] | 3.26 µM [falling, single point]
9 | O=C1Nc2cccnc2Sc2ccccc21 | -9.2% |  | 1.03 µM [falling, full curve]
10 | COc1cc(CN2C(=O)C(NC(=O)c3ccco3)(C(F)(F)F)C3=C2CC(C)(C)CC3=O)cc(OC)c1 (configuration not stated) | 6.62% | 1.16 µM [falling, partial curve, poor fit] | 3.66 µM [falling, single point]
11 | CSc1nnnn1-c1cccc(O)c1 | -2.63% |  | 11.6 µM [rising, single point]
12 | Cc1cc(C)nc(SCC(=O)NCC2COc3ccccc3O2)n1 (configuration not stated) | -3.03% |  | 25.9 µM [rising, single point]
13 | O=C(O)c1ccc(N2C(=O)C3ON(c4ccccc4)C(c4ccccc4F)C3C2=O)cc1 (configuration not stated) | -18.6% |  | 18.4 µM [falling, partial curve]
14 | Cc1[nH]c(=O)[nH]c(=O)c1S(=O)(=O)N1CCOCC1 | -12.8% |  | 
15 | CCCNC(=O)c1cc(S(=O)(=O)N2CCCCC2)ccc1N1CCOCC1 | -50% | 10.3 µM [falling, single point] | 
16 | COc1ccc(C(=O)C[n+]2ccc(-c3nnc4n3CCCCC4)cc2)cc1 | 6.19% | 1.46 µM [rising, single point] | 
17 | Cc1ccc(C(=O)NCCC2=CCCCC2)cc1S(=O)(=O)N1CCCCC1 | -13.4% | 0.366 µM [falling, partial curve, poor fit] | 0.517 µM [falling, full curve]
18 | Cc1c(C(=O)N2CC(C)OC(C)C2)oc2ccccc12 (configuration not stated) | -3.9% | 0.082 µM [falling, full curve, poor fit] | 
19 | CC(=O)Nc1ccc(Cc2nc3ccccc3[nH]2)cc1 | -7.3% | 3.26 µM [falling, single point] | 

2 records drawn at random from the list so far, as already listed:
Row | SMILES | cell number change | AC50 [1] | AC50 [2]
2 | O=C(NNC(=O)C1CCCCC1)c1ccncc1 | -5.71% |  | 
19 | CC(=O)Nc1ccc(Cc2nc3ccccc3[nH]2)cc1 | -7.3% | 3.26 µM [falling, single point] | 

Additional results.

Row | SMILES | cell number change | AC50 [1] | AC50 [2]
20 | COc1cc(/C=C/C(=O)N2CCC=CC2=O)cc(OC)c1OC | -23.4% |  | 18.4 µM [falling, single point]
21 | COc1cccc(C(=O)CN(C(=O)c2ccc(Cl)cc2Cl)N2C(=O)c3ccccc3C2=O)c1 | 10% | 6.51 µM [rising, single point] | 
22 | C/C(CCN1CCc2nc(-c3ccccc3)c(-c3ccccc3)cc2C1)=N\O[C@@H](C)c1cc(-c2c(C)cc(C)cc2C)no1 | 13.8% |  | 0.116 µM [rising, full curve, poor fit]
23 | CCOC(=O)C1=C(C)Nc2ccccc2N=C1NC(=O)CCCN1C(=O)c2ccccc2C1=O | 7.59% |  | 1.64 µM [rising, partial curve]
24 | CC(=O)N(CCc1ccccc1)Cc1cc2ccc(C)c(C)c2[nH]c1=O | -19.3% |  | 0.231 µM [falling, full curve, poor fit]
25 | C/C(Cl)=C\Cn1c(Nc2cccc(C)c2)nc2c1c(=O)n(C)c(=O)n2C |  | 0.103 µM [rising, full curve, poor fit] | 
26 | Cc1ccc(NC2=C(C(=O)c3ccccc3)N(C)S(=O)(=O)c3ccccc32)cc1 | -14.3% |  | 13 µM [falling, single point]
27 | O=C1C2C3C=CC(C2C(=O)N1c1ccc(O)cc1)C1C2C(=O)N(c4ccc(O)cc4)C(=O)C2C31 (configuration not stated) | -17.8% |  | 0.103 µM [falling, full curve, poor fit]
28 | COCCN1CCN(C(=O)C2CCC(=O)N(CCc3ccccc3)C2)CC1 (configuration not stated) | 7.92% |  | 0.58 µM [falling, single point]
29 | CC(C)(C)c1ccc(CSc2nnc(-c3ccccc3NC(=O)c3ccccc3)o2)cc1 | 42.3% | 5.8 µM [rising, partial curve] | 9.2 µM [rising, partial curve]
30 | N#CCc1c(C#N)c(N)nc(N2CCN(c3ccc(F)cc3)CC2)c1C#N |  |  | 2.31 µM [rising, partial curve]
31 | O=C1CC2(CON=C2c2ccc(F)cc2)C(=O)N1c1ccc(F)cc1 (configuration not stated) | 2.62% |  | 
32 | Cc1ccnc2nc(C(=O)OCCOc3cccc(Br)c3)nn12 | 16.9% |  | 0.92 µM [falling, full curve]
33 | COc1ccc(-c2cn3ccccc3n2)cc1[N+](=O)[O-] |  |  | 6.51 µM [rising, single point]
34 | CCOC(=O)Cc1csc(SCC(=O)c2c(N)n(CC(C)C)c(=O)n(C)c2=O)n1 | -32.5% | 4.61 µM [falling, full curve] | 0.00731 µM [falling, full curve, poor fit]
35 | CCC(C)C(=O)Nc1ccc([N+](=O)[O-])cc1OC (configuration not stated) | -8.9% |  | 
36 | Cc1cccc(-c2nnn3c2nc(NCCc2ccc(S(N)(=O)=O)cc2)c2ccccc23)c1 |  | 1.84 µM [falling, partial curve] | 1.84 µM [falling, partial curve]
37 | Cc1ccc(S(=O)(=O)N2CCCC2)cc1[N+](=O)[O-] | 12% |  | 6.51 µM [falling, single point]
